These are yes or no findings as the source states them, for the method shown. Binding seen in cells or lysates may run through a third protein. A yes stands for co-enrichment or nearness to the bait. Other partners may have been found. One block for each binder: values may come before it.
Tests used:
[1] = target: PINCH-Protein A (pMT-PINCH-PrA in S2 cells) (Drosophila melanogaster); test: affinity purification with mass spectrometry; PINCH-PrA captured on IgG Sepharose from lysates of S2 cells; TLB (0.1% Triton, 50 mM Tris-HCl pH 7.9, 150 mM NaCl), 1.5 hours at 4°C; control S2 cells expressing Protein A alone; MudPIT
[2] = target: PINCH-Protein A (transgene pCasPIN-PrA in Drosophila) (Drosophila melanogaster); test: affinity purification with mass spectrometry; PINCH-PrA captured on IgG Sepharose from lysates of 0-24 hour embryos (PINCH mutant rescued with the PINCH-PrA transgene); TLB (0.1% Triton, 50 mM Tris-HCl pH 7.9, 150 mM NaCl), 1.5 hours at 4°C; control wild-type w1118 embryos; two replicate …; MudPIT
[3] = target: PINCH-Protein A (pMT-PINCH-PrA in S2 cells) (Drosophila melanogaster); test: affinity purification with mass spectrometry; iGEO: PINCH-PrA (IgG Sepharose) and Flag-PINCH (anti-Flag M2 agarose) complexes from S2 cell lysates in TLB, tri-colour CyDye 2D-GE with a vector control, confirmed on individual Deep Purple stained 2D gels in triplicate; spots present with both baits and absent in controls identified by nano-LC-MS/MS; PINCH^Q38A-PrA compared in separate pull-downs
[4] = target: Flag-PINCH (pMT-Flag-PINCH in S2 cells) (Drosophila melanogaster); test: as above

B1: Ribosomal protein S16 (protein, UniProt Q9W237 1-148)
chain: MQQKRREPVQAVQVFGRKKTATAVAYCKRGNGLLKVNGRPLEQIEPKVLQYKLQEPLLLLGKEKFAGVDIRVRVSGGGHVAQIYAIRQAISKALVAFYQKYVDEASKKEIKDILVQYDRTLLVGDPRRCEPKKFGGPGARARYQKSYR
binding [1]: binds
binding [2]: binds

B2: Trip1 (protein, UniProt O02195 1-326)
chain: MRPLMLQGHERSITQIKYNREGDLLFSCSKDQKPNVWYSLNGERLGTYDGHQGAVWCLDVDWESRKLITGAGDMTAKIWDVEYGTVIASIPTKSSVRTSNFSFSGNQAAYSTDKAMGQSCELFLIDVRNADSSLSEQEPTLRIPMTESKITSMLWGPLDETIITGHDNGNIAIWDIRKGQKVVDSGTDHSAGINDMQLSKDGTMFVTASKDTTAKLFDSESLMCLKTYKTERPVNSAAISPIMDHVVLGGGQDAMEVTTTSTKAGKFDSRFFHLIYEEEFARLKGHFGPINSLAFHPDGKSYASGGEDGFVRVQTFDSTYFENIFE
binding [1]: binds
binding [2]: binds

B3: Mov34 (protein, UniProt P26270 1-338)
chain: MPSQEVSVNKVIVHPLVLLSVVDHFNRMGKIGNQKRVVGVLLGCWRSKGVLDVSNSFAVPFDEDDKDKSVWFLDHDYLENMYGMFKKVNARERVVGWYHTGPKLHQNDIAINELVRRYCPNSVLVIIDAKPKDLGLPTEAYISVEEVHDDGSPTSKTFEHVPSEIGAEEAEEVGVEHLLRDIKDTTVGSLSQKITNQLMGLKGLNAQLRDIKQYLQRVGDSKMPINHQIVYQLQDIFNLLPDITNDQFTGTMYVKTNDQMLVVYLASMVRSIIALHNLINNKLANRDAEEGKSDSKEAKEKNKDSKDKDNKETKDKDGKKAEEKADKGKDEGGKGSRK
binding [1]: binds
binding [2]: binds

B5: Rpt3 (protein, UniProt Q9V405 1-413)
chain: MPYNMDVLIPEKDELSDLKLKDAHSSLDELDMEDLYVRYKKLQKTLEFIEVQEEYIKDEQRNLKKEYLHAQEEVKRIQSVPLVIGQFLEAVDQNTGIVGSTTGSNYYVRILSTIDRELLKPSASVALHKHSNALVDVLPPEADSSISMLQPDEKPDVSYADIGGMDMQKQEIREAVELPLTHFELYKQIGIDPPRGVLMYGPPGCGKTMLAKAVAHHTTASFIRVVGSEFVQKYLGEGPRMVRDVFRLAKENAPAIIFIDEIDAIATKRFDAQTGADREVQRILLELLNQMDGFDQTTNVKVIMATNRADTLDPALLRPGRLDRKIEFPLPDRRQKRLVFSTITSKMNLSEDVDLEEFVARPDKISGADINAICQEAGMHAVRENRYIVLAKDFEKGYKNNIKKDEQEHEFYK
binding [3]: binds
binding [4]: binds
binding [1]: binds

B6: Ribosomal protein L6 (protein, UniProt Q9V9W2 1-243)
chain: MAPIEKAKKVAKSAKKGKKHPVNSYLKGGILRYSKAQMYKRRALYRLKDKKSPVVEKAKVPIKKSKASYPTKTFVKKRPSKANFSEHKRNTRRNLTPGTVLILLAGRHQGKRVVLLKVLASGLLLVTGPFALNSCPLRRVSQRYVIGTSSKVDLGAFKVPEHLNDAYFRRLKAKKDKKTGEADIFAAKKERFVPNEQRKKDQKEVDAALLKVIKAHPEGKFFAKYLQNMFALHSSQYPHRMRF
binding [1]: binds
binding [2]: binds

B8: Proteasome α5 subunit (protein, UniProt Q95083 1-244)
chain: MFLTRSEYDRGVNTFSPEGRLFQVEYAIEAIKLGSTAIGICTPEGVVLAVEKRITSPLMVPSTVEKIVEVDKHIGCATSGLMADARTLIERARVECQNHWFVYNERMSIESCAQAVSTLAIQFGDSGDSDGAAAMSRPFGVAILFAGIEAGQPQLWHMDPSGTFVRHGAKAIGSGSEGAQQNLQDLFRPDLTLDEAIDISLNTLKQVMEEKLNSTNVEVMTMTKEREFYMFTKEEVEQHIKNIA
binding [1]: binds
binding [2]: binds

B11: Ribosomal protein S12 (protein, UniProt P80455 1-139)
chain: MADVDVDVPSAAPVLDGAMDINTALQEVLKKSLIADGLVHGIHQACKALDKRQAVLCILAESFDEPNYKKLVTALCNEHQIPLIRVDSHKKLGEWSGLCKIDKEGKPRKVCGCSVVVIKDFGEETPALDVVKDHLRQNS
binding [1]: binds
binding [2]: binds

Second part, the binder after the results:

binding [1]: binds
binding [2]: binds
B4: UDP-galactose 4'-epimerase (protein, UniProt Q9W0P5 1-350)
chain: MAPPTVLVTGGAGYIGSHTVLEMLNAGYNVICVDNLCNAYSSGAKLPEALSRVQEITGKKVNFYRVDITDREQVRSVFQEHKIDMVAHFAALKAVGESCRIPLQYYHNNMTGTNVLLEAMADNNVFKFVYSSSATVYGEPKFLPVTEEHPTGNCTSPYGKTKYFTEEILKDLCKSDKRWAVVSLRYFNPVGAHISGRIGEDPNGEPNNLMPYIAQVAVGRRPSLSVYGSDFPTHDGTGVRDYIHIVDLAEGHVKALDKLRNIAETGFFAYNLGTGVGYSVLDMVKAFEKASGKKVNYTLVDRRSGDVATCYADATLADKKLGWKAERGIDKMCEDTWRWQSQNPNGYANK

binding [3]: binds
binding [4]: binds
B7: Rpt1 (protein, UniProt Q7KMQ0 1-433)
chain: MPDYLGDDQRKVKHDEKEDKEIKSLDEGDIELLKTYGQSQYHKSIKSIEEDIQKAVKQVNELTGIKESDTGLAPPALWDLAADKQILQNEQPLQVARCTKIINADSDDPKYIINVKQFAKFVVDLADSVAPTDIEEGMRVGVDRNKYQIHIPLPPKIDPTVTMMQVEDKPDVTYSDVGGCKEQIEKLREVVETPLLHPEKFVNLGIEPPKGVLLFGPPGTGKTLCARAVANRTDACFIRVIGSELVQKYVGEGARMVRELFEMARSKKACLIFFDEIDAIGGARFDDGAGGDNEVQRTMLELINQLDGFDPRGNIKVLMATNRPDTLDPALMRPGRLDRKVEFGLPDQDGRSHIFKIHARSMSVERDIRFDLLARLCPNSTGAEIRSVCTEAGMFAIRARRKVATEKDFLEAVKKVIKSYAKFSATPRYMTYN

binding [3]: binds
binding [4]: binds
binding [1]: binds
B9: Pros35 (protein, UniProt P12881 1-279)
chain: MFRNQYDSDVTVWSPQGRLHQVEYAMEAVKLGTATVGLKNKDYAVLVALCKPTSELSDTQRKIIPIDDHLGISIAGLTADARVLSRYLRSECLNYKHSYDTTYPVSRLITNLGNKMQTTTQRYDRRPYGVGLLVAGYDERGPHIYQVTPSATFFNCKANSIGSRSQSARTYLEKNLNKFLDSSKDEIIRHGIRAILGTLPTDEQGKDAGQYDITVAIVGKDQPFTILSNKDSAKHVAIAKENDNDTPRNDDDDDRPSPPEEPAAGPRDPEVLVATEQRP

binding [1]: binds
binding [2]: binds
B10: eIF-5A (protein, UniProt Q9GU68 1-159)
chain: MAELDDQFETTDSGASTTYPMQCSALRKNGFVMLKSRPCKIVEMSTSKTGKHGHAKVHMVGIDIFSNKKYEDICPSTHNMDVPNVKREDLQLIAISDDSFLTLMTESGDLREDLKVPEGELGEQLRLDFDSGKDLLCTVLKACGEECVIAIKTNTALDK

binding [1]: binds
binding [2]: binds
B12: Heat shock protein 26 (protein, UniProt P02517 1-208)
chain: MSLSTLLSLVDELQEPRSPIYELGLGLHPHSRYVLPLGTQQRRSINGCPCASPICPSSPAGQVLALRREMANRNDIHWPATAHVGKDGFQVCMDVAQFKPSELNVKVVDDSILVEGKHEERQDDHGHIMRHFVRRYKVPDGYKAEQVVSQLSSDGVLTVSIPKPQAVEDKSKERIIQIQQVGPAHLNVKANESEVKGKENGAPNGKDK

Reference: PMC3688448
